Measurements from patent publication US20070078175A1, “Administration of novel phenylfurylmethylthiazolidine-2,4-dione and phenylthienylmethylthiazolidine-2,4-dione compounds for stimulating or inducing the growth of keratinous fibers and/or slowing loss thereof” (L'OREAL, priority 2005, published 2007).

Test: Comparative hair colouring test on bleached locks of hair
Conditions: 100 mg product in water/ethanol/aqueous ammonia (salt form), 40° C., 1 hour

| SMILES | coloring of locks of hair |
| --- | --- |
| O=C1N=C(O)/C(=C/c2ccc(-c3ccc(C(=O)O)cc3)o2)S1 [4-{5-[(2,4-disulfo-1,3-thiazolidin-5-ylidene)methyl]-2-furyl}benzoic acid] | colors the locks of hair |
| O=C1N=C(O)C(Cc2ccc(-c3ccc(C(=O)O)cc3)o2)S1 (centres unmarked) | in contrast |
